PubChem BioAssay AID1259405 | NCATS, 2018

- Screen: 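Mouse-designed siRNAs used to find CHO productivity engineering targets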 (primary screen)
- Cells: Chinese hamster CHO-K1 ovary cells with stable secreted eGFP expression
- Reagents: single siRNA against mouse genes, 0.8 pmol siRNA per well (2 µl of 400 nM stock)
- Timing: 3 days
- Read-out: 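Per-well intracellular GFP measured by laser scanning cytometry, plus viability from ATP luminescence, each relative to plate median of non-targeting control wells, in %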
- Reading the numbers: GFP, % of control: higher = more GFP per well, higher productivity; viability (ATP), % of control: higher = more viable cells (more ATP)
- Active means: 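Called active when intracellular GFP, relative to negative control, is at or above 120%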
Shown is a random part of about 50,000 deposited reagents. Over the whole deposit, about 4,000 (8%) got an active call. 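Mouse siRNA library applied to hamster cells; one well for each siRNA.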 Entries without a mark were called inactive. Reagents against one gene are numbered here.

{"gene": "Snx32 (GeneID 225861)", "siRNA no.": 1, "GFP, % of control": 72.2, "viability (ATP), % of control": 74.9}
{"gene": "Snx32 (GeneID 225861)", "siRNA no.": 2, "GFP, % of control": 54.7, "viability (ATP), % of control": 53.3}
{"gene": "Snx32 (GeneID 225861)", "siRNA no.": 3, "GFP, % of control": "121 (active)", "viability (ATP), % of control": 75.5}
{"gene": "Or8h8 (GeneID 258842)", "siRNA no.": 1, "GFP, % of control": 85.7, "viability (ATP), % of control": 78.4}
{"gene": "Or8h8 (GeneID 258842)", "siRNA no.": 2, "GFP, % of control": 52.2, "viability (ATP), % of control": 77.1}
{"gene": "Or8h8 (GeneID 258842)", "siRNA no.": 3, "GFP, % of control": "121 (active)", "viability (ATP), % of control": 45.9}
{"gene": "Gtf3a (GeneID 66596)", "siRNA no.": 1, "GFP, % of control": 93.1, "viability (ATP), % of control": 90.3}
{"gene": "Gtf3a (GeneID 66596)", "siRNA no.": 2, "GFP, % of control": "125 (active)", "viability (ATP), % of control": 62}
{"gene": "Gtf3a (GeneID 66596)", "siRNA no.": 3, "GFP, % of control": "122 (active)", "viability (ATP), % of control": 82}
{"gene": "Atosb (GeneID 230088)", "siRNA no.": 1, "GFP, % of control": 119, "viability (ATP), % of control": 45.7}
{"gene": "Atosb (GeneID 230088)", "siRNA no.": 2, "GFP, % of control": 78.1, "viability (ATP), % of control": 61.3}
{"gene": "Atosb (GeneID 230088)", "siRNA no.": 3, "GFP, % of control": 59.1, "viability (ATP), % of control": 58.2}
{"gene": "Apol7c (GeneID 108956)", "siRNA no.": 1, "GFP, % of control": 34.6, "viability (ATP), % of control": 36.3}
{"gene": "Apol7c (GeneID 108956)", "siRNA no.": 2, "GFP, % of control": 108, "viability (ATP), % of control": 73}
{"gene": "Apol7c (GeneID 108956)", "siRNA no.": 3, "GFP, % of control": 82.1, "viability (ATP), % of control": 107}
{"gene": "Utp23 (GeneID 78581)", "siRNA no.": 1, "GFP, % of control": 77.7, "viability (ATP), % of control": 78.4}
{"gene": "Utp23 (GeneID 78581)", "siRNA no.": 2, "GFP, % of control": 113, "viability (ATP), % of control": 100}
{"gene": "Utp23 (GeneID 78581)", "siRNA no.": 3, "GFP, % of control": 111, "viability (ATP), % of control": 64.9}
{"gene": "Ppp1r10 (GeneID 52040)", "siRNA no.": 1, "GFP, % of control": 69.6, "viability (ATP), % of control": 99.1}
{"gene": "Ppp1r10 (GeneID 52040)", "siRNA no.": 2, "GFP, % of control": 69.4, "viability (ATP), % of control": 53.1}
{"gene": "Ccdc61 (GeneID 232933)", "siRNA no.": 1, "GFP, % of control": 80.9, "viability (ATP), % of control": 89.7}
{"gene": "Ccdc61 (GeneID 232933)", "siRNA no.": 2, "GFP, % of control": 87, "viability (ATP), % of control": 79.4}
{"gene": "Ccdc61 (GeneID 232933)", "siRNA no.": 3, "GFP, % of control": 103, "viability (ATP), % of control": 82.8}
{"gene": "Or13a24 (GeneID 258201)", "siRNA no.": 1, "GFP, % of control": 70.9, "viability (ATP), % of control": 61}
{"gene": "Or13a24 (GeneID 258201)", "siRNA no.": 2, "GFP, % of control": "137 (active)", "viability (ATP), % of control": 127}
{"gene": "Or13a24 (GeneID 258201)", "siRNA no.": 3, "GFP, % of control": 77.3, "viability (ATP), % of control": 59.8}
{"gene": "Tulp3 (GeneID 22158)", "siRNA no.": 1, "GFP, % of control": 54.2, "viability (ATP), % of control": 50.3}
{"gene": "Tulp3 (GeneID 22158)", "siRNA no.": 2, "GFP, % of control": 80.5, "viability (ATP), % of control": 81.3}
{"gene": "Tulp3 (GeneID 22158)", "siRNA no.": 3, "GFP, % of control": 74.7, "viability (ATP), % of control": 72}
{"gene": "Hscb (GeneID 100900)", "siRNA no.": 1, "GFP, % of control": 55.7, "viability (ATP), % of control": 45}
{"gene": "Hscb (GeneID 100900)", "siRNA no.": 2, "GFP, % of control": 55.6, "viability (ATP), % of control": 89.3}
{"gene": "Hscb (GeneID 100900)", "siRNA no.": 3, "GFP, % of control": 49.1, "viability (ATP), % of control": 73.9}
{"gene": "Creld1 (GeneID 171508)", "siRNA no.": 1, "GFP, % of control": 59.4, "viability (ATP), % of control": 75.4}
{"gene": "Creld1 (GeneID 171508)", "siRNA no.": 2, "GFP, % of control": 38.1, "viability (ATP), % of control": 39.2}
{"gene": "Creld1 (GeneID 171508)", "siRNA no.": 3, "GFP, % of control": 83.8, "viability (ATP), % of control": 113}
{"gene": "Vmn1r185 (GeneID 171265)", "siRNA no.": 1, "GFP, % of control": 94.1, "viability (ATP), % of control": 65.7}
{"gene": "Vmn1r185 (GeneID 171265)", "siRNA no.": 2, "GFP, % of control": 93.6, "viability (ATP), % of control": 98}
{"gene": "Vmn1r185 (GeneID 171265)", "siRNA no.": 3, "GFP, % of control": 54.7, "viability (ATP), % of control": 85.6}
{"gene": "Gata6 (GeneID 14465)", "siRNA no.": 1, "GFP, % of control": 53, "viability (ATP), % of control": 63.6}
{"gene": "Gata6 (GeneID 14465)", "siRNA no.": 2, "GFP, % of control": 65.1, "viability (ATP), % of control": 68.6}

Taken from above.
Atosb (GeneID 230088) #2, viability (ATP), % of control: 61.3
Under “GFP, % of control”, Apol7c (GeneID 108956) #1 has 34.6
Result of Utp23 (GeneID 78581) #2 in “GFP, % of control”: 113
Value of Ppp1r10 (GeneID 52040) #1 in “GFP, % of control”: 69.6
Snx32 (GeneID 225861) #2, viability (ATP), % of control: 53.3
For “GFP, % of control”, Vmn1r185 (GeneID 171265) #2 is entered as 93.6
